These are yes or no findings as the source states them, for the method shown. In cells and extracts the contact can be indirect. Some binding calls cover weakened binding; strength is not graded here.
Columns and labels:
[1] = target: T1, Mig6, endogenous in primary mammary epithelial cells (mouse (endogenous in pMECs)) (UniProt Q99JZ7); test: co-IP; endogenous Mig6 immunopurified from pMECs cultured in the presence or absence of EGF for 2 hr (with or without nilotinib); immunoblotting for c-Abl or EGFR
T1 sequence: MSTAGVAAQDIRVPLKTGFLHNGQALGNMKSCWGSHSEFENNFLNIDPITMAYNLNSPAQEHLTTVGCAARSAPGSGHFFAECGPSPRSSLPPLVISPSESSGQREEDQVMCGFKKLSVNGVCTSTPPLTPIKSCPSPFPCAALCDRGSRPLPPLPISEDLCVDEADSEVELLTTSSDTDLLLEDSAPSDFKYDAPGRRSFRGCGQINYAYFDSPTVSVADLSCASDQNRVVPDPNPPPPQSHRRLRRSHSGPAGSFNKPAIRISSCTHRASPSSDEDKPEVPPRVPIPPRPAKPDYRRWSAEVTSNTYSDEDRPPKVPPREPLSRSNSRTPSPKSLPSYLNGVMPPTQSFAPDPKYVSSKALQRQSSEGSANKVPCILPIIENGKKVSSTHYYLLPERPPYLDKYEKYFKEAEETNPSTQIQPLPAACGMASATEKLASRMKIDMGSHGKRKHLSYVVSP

Sequences of proteins named here, by UniProt entry; tags and fusion partners are left off.
UniProt P00520: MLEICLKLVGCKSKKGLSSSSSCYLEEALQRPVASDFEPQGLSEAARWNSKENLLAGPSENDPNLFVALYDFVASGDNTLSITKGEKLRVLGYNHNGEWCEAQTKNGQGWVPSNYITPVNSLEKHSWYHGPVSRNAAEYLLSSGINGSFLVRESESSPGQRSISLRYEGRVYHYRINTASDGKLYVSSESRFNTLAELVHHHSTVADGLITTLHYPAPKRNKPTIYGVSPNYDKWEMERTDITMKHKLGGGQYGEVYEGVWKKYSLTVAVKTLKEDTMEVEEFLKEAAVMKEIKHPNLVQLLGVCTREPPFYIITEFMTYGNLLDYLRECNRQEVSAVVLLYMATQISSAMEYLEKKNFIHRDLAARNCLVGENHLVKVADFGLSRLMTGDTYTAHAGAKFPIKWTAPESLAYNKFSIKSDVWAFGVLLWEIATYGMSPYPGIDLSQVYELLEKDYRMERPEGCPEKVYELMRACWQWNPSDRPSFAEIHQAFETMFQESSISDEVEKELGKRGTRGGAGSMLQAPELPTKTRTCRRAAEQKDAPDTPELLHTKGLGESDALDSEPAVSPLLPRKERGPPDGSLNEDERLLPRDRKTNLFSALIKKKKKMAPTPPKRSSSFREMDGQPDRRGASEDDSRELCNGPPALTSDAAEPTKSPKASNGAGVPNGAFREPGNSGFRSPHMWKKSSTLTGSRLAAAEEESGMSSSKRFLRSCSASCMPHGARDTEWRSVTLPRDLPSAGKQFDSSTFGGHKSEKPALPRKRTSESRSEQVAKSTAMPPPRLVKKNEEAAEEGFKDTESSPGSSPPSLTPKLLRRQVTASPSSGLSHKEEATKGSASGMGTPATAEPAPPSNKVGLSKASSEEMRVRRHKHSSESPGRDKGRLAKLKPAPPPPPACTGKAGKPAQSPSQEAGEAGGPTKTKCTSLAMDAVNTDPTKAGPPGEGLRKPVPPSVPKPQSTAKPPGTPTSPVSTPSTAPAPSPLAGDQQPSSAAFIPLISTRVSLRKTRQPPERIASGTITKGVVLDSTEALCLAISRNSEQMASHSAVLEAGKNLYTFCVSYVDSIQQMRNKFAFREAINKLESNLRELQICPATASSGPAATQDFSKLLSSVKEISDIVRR

[2] = target: T1, Mig6, endogenous in primary mammary epithelial cells (mouse (endogenous in pMECs)); test: condition: only pMECs cultured in the absence of EGF for 2 hr; co-IP; endogenous Mig6 immunopurified from pMECs cultured in the absence of EGF for 2 hr; immunoblotting for EGFR

Substance | binding [1] | binding [2]
EGFR, endogenous in primary mammary epithelial cells (from UniProt Q01279 25-1210) (receptor) | binds | no binding
c-Abl, endogenous in primary mammary epithelial cells (from UniProt P00520 1-1123) (enzyme) | binds | 

From paper PMC3657149, “Mig6 Is a Sensor of EGF Receptor Inactivation that Directly Activates c-Abl to Induce Apoptosis during Epithelial Homeostasis” (Developmental Cell, 2012)
